These are yes or no findings as the source states them, for the method shown. Some entries that bind do so weakly or less than the wild type. Blank lines part the entries; values can stand above or below the binder they belong to.
Tests used:
[1] = biological target: recombinant LY6K protein with histidine and Strep tags (human) (UniProt Q17RY6); test: quartz crystal microbalance (QCM) biosensor, immobilized LY6K antigen
[2] = biological target: recombinant LY6K protein with histidine and Strep tags (human) (UniProt Q17RY6); test: ELISA on recombinant LY6K
[3] = biological target: recombinant LY6K protein with histidine and Strep tags (human) (UniProt Q17RY6); test: QCM biosensor, immobilized recombinant LY6K; Bmax second of the three
[4] = biological target: recombinant LY6K protein with histidine and Strep tags (human) (UniProt Q17RY6); test: QCM biosensor, immobilized recombinant LY6K; Bmax highest of the three

Amino acid sequences for entries named in this document (tags omitted). Residues count along the entry.
UniProt Q17RY6, residues 18-138: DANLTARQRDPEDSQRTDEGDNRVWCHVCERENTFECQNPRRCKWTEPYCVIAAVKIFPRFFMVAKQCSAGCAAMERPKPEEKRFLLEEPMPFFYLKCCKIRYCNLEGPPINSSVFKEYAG

binding [1]: binds | binding [2]: binds | binding [3]: binds
B1: murine anti-LY6K antibody G57 (antibody, V domains shown)
VH: EVQLVESGGDLVKPGGSLKLSCAASGFTFNSYGMSWVRQTPDKRLEWVATISSGGTYTYYSDSVKGRFTISRDNAKNILYLHMSSLKSEDTAMYYCARHDWDFFDYWGQGTTLTVSS
VL: DVVMTQTPLSLPVSLGDQASISCRSSQSLVHTDGDTYLNWYLQKPGQSPKLLIYKVSNRFSGVPDRFSGSGSGTDFTLKIRRVEAEDLGVYFCSQNTHVYTFGGGTKLE

binding [2]: binds
B2: humanized 22C-G8 (antibody, V domains shown)
VH: QVQLVQSGAEVKKPGASVKVSCKASGYTFTSYWMHWVRQAPGQGLEWIGEINPSNGGANYNEKFKRRATMTVDKSTSTVYMELSSLRSEDTAVYYCTMGGNFFFAYWGQGTLVTVSS
VL: DVVMTQSPLSLSVTLGQPASISCKSSQSLLASDGKTYLNWFQQRPGQSPRRLIYLVSKLDSGVPDRFSGSGSGTDFTLKISRVEAEDVGVYYCWQGSHFPLTFGGGTKVE

binding [1]: binds | binding [2]: binds | binding [4]: binds
B3: murine anti-LY6K antibody 28C1 (antibody, V domains shown)
VH: QIQLVQSGPELKKPGETVKISCKTSGYTFTNFAMNWVKQTPGKGLRYMGWINTNTGEPTYVEEFKGRFAFSLETSASTAYLQISNLKNEDTATYFCTREWRRSYYFDYWGQGTSLTVSS
VL: DIQMTQTPLSLPVSLGDQASISCRSSQTILHSNGNTYLEWYLQKPGQSLKLLIYKVSNRLSGVPDRFSGSGSGTDFTLKISRVEAEDLGVYYCFQGSHDPFTFGSGTKLE
